{"source": "the supplement of paper PMC3334620", "note": "In all, about 33,000 sequences were measured (“E-score (-0.5 to 0.5)”: median about -8e-05, highest 2% from about 0.23 on). The list shows a part of the results."}
{"target": "T1, Nrg2 (UniProt P38082)", "T1 sequence": "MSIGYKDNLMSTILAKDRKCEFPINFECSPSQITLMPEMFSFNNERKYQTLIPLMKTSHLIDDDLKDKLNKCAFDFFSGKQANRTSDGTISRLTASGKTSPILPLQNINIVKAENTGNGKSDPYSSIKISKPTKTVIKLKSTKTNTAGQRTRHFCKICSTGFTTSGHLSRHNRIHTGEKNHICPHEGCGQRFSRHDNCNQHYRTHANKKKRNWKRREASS", "test": "PBM E-score (8-mer binding enrichment) (E-score (-0.5 to 0.5)); higher = stronger / more preferred TF binding", "settings": "protein concentration: 100 nM; construct: GST-full length", "procedure,_shortened": "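Universal all-10-mer Agilent arrays, fresh or stripped once, were converted to double-stranded form by primer extension. GST-tagged yeast transcription factors from PURExpress in vitro transcription/translation, full-length or DNA-binding domain only, were applied at about 100-200 nM and detected with fluorescent anti-GST. After masliner normalisation, the Universal PBM Analysis Suite scored each ungapped eight-base word together with its reverse complement by E-score.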"}
{"sequence": "AAGAAGGA", "PBM E-score": -0.13}
{"sequence": "TGAGTGCA", "PBM E-score": 0.0235}
{"sequence": "GAGTCAAC", "PBM E-score": -0.0564}
{"sequence": "AAGGATAT", "PBM E-score": 0.0571}
{"sequence": "CCCGCAAG", "PBM E-score": -0.15}
{"sequence": "ACACCGCA", "PBM E-score": 0.133}
{"sequence": "AATTTTTA", "PBM E-score": 0.0865}
{"sequence": "AACACCCG", "PBM E-score": 0.225}
{"sequence": "AATTAGGA", "PBM E-score": 0.0556}
{"sequence": "GAAAATCA", "PBM E-score": 0.0143}
{"sequence": "CAGGACAA", "PBM E-score": 0.226}
{"sequence": "CCGGCCGC", "PBM E-score": -0.152}
{"sequence": "CCGTACGA", "PBM E-score": -0.0376}
{"sequence": "AGTCATGC", "PBM E-score": -0.115}
{"sequence": "CCCACGTA", "PBM E-score": 0.0253}
{"sequence": "CTTCACCA", "PBM E-score": -0.113}
{"sequence": "AGGAAATA", "PBM E-score": 0.22}
{"sequence": "ACACTCAG", "PBM E-score": 0.133}
{"sequence": "CACTTCCC", "PBM E-score": 0.00444}
{"sequence": "ATTTTGGA", "PBM E-score": 0.0286}
{"sequence": "AATTGTAT", "PBM E-score": 0.119}
{"sequence": "TGTCAAAA", "PBM E-score": 0.0142}
{"sequence": "ACAGTGTC", "PBM E-score": -0.133}
{"sequence": "CTCTAGGA", "PBM E-score": -0.239}
{"sequence": "CTGAAATC", "PBM E-score": 0.0648}
{"sequence": "AAAAAAGG", "PBM E-score": 0.127}
{"sequence": "AGGAATCA", "PBM E-score": -0.00827}
{"sequence": "AGCCCTGA", "PBM E-score": 0.0189}
{"sequence": "GGCCCGTA", "PBM E-score": -0.148}
{"sequence": "ACTGAATC", "PBM E-score": -0.0363}
{"sequence": "GAGTCGTA", "PBM E-score": 0.0144}
{"sequence": "CCTTTGCG", "PBM E-score": 0.219}
{"sequence": "AATTCTAT", "PBM E-score": -0.0322}
{"sequence": "GTTGTGTA", "PBM E-score": -0.0294}
{"sequence": "CTTGTATA", "PBM E-score": -0.011}
{"sequence": "CCACCCCC", "PBM E-score": -0.406}
{"sequence": "CAAGAAAG", "PBM E-score": 0.0551}
{"sequence": "TCTAACAA", "PBM E-score": 0.0208}
{"sequence": "TCCCGGCA", "PBM E-score": -0.239}
{"sequence": "CCAATCAC", "PBM E-score": 0.0121}
{"sequence": "AGGAACCA", "PBM E-score": -0.0689}
{"sequence": "GTCTGTGA", "PBM E-score": 0.191}
{"sequence": "AGTACTGC", "PBM E-score": -0.0012}
{"sequence": "ATGTGCTG", "PBM E-score": 0.125}
{"sequence": "ACACGGCT", "PBM E-score": 0.102}
{"sequence": "AATTGCTG", "PBM E-score": 0.257}
{"sequence": "ATACCAAC", "PBM E-score": 0.155}
{"sequence": "CATACGCG", "PBM E-score": 0.12}
{"sequence": "GCCATGAA", "PBM E-score": 0.0988}
{"sequence": "GGAGACGA", "PBM E-score": 0.139}
{"sequence": "CCCTTGCA", "PBM E-score": 0.092}
{"sequence": "GTCAGACA", "PBM E-score": 0.0198}
{"sequence": "ATGCGGCC", "PBM E-score": -0.0258}
{"sequence": "GCATCGAC", "PBM E-score": 0.0311}
{"sequence": "TAACCCCA", "PBM E-score": -0.0503}
{"sequence": "CGGCCACC", "PBM E-score": -0.0656}
{"sequence": "CCAATGAC", "PBM E-score": -0.116}
{"sequence": "CCAGGCGA", "PBM E-score": -0.225}
{"sequence": "ATCAGCTG", "PBM E-score": 0.184}
{"sequence": "GATCGTTA", "PBM E-score": -0.0328}
{"sequence": "GATGACGA", "PBM E-score": 0.00169}
{"sequence": "AGGACACA", "PBM E-score": 0.196}
{"sequence": "CACCAGAA", "PBM E-score": -0.13}
{"sequence": "TCCTAAAA", "PBM E-score": -0.251}
{"sequence": "CTTCCGAA", "PBM E-score": -0.017}
{"sequence": "CATTCCAA", "PBM E-score": -0.142}
{"sequence": "CGCCAGAA", "PBM E-score": 0.00339}
{"sequence": "AAGCTCCA", "PBM E-score": -0.151}
{"sequence": "ACCGGCCC", "PBM E-score": -0.281}
{"sequence": "CTAGAAGA", "PBM E-score": -0.067}
{"sequence": "TTAGGAAA", "PBM E-score": -0.0859}
{"sequence": "GCGGTCGA", "PBM E-score": 0.148}
{"sequence": "CGGGTATC", "PBM E-score": 0.135}
{"sequence": "TGGGGCAA", "PBM E-score": 0.0289}
{"sequence": "AGGAATAC", "PBM E-score": -0.116}
{"sequence": "CATAAAGC", "PBM E-score": -0.0684}
{"sequence": "GGGTTATA", "PBM E-score": -0.113}
{"sequence": "ATACACAG", "PBM E-score": 0.134}
{"sequence": "ATATTTAG", "PBM E-score": 0.0718}
{"sequence": "GATCCGGA", "PBM E-score": -0.0216}
{"sequence": "ATACGGCG", "PBM E-score": -0.0902}
{"sequence": "AATTTCGC", "PBM E-score": 0.244}
{"sequence": "ATAGCATC", "PBM E-score": 0.0125}
{"sequence": "AGGACGTA", "PBM E-score": -0.182}
{"sequence": "GGTCGGAA", "PBM E-score": 0.114}
{"sequence": "CAGTCAAC", "PBM E-score": -0.142}
{"sequence": "AAAACAGG", "PBM E-score": -0.0624}
{"sequence": "ATGCACAG", "PBM E-score": 0.083}
{"sequence": "AATGTCAA", "PBM E-score": 0.0225}
{"sequence": "AGACAACC", "PBM E-score": 0.0279}
{"sequence": "AGCCTGAG", "PBM E-score": -0.23}
{"sequence": "CAGTTTTC", "PBM E-score": 0.17}
{"sequence": "CATTAAGA", "PBM E-score": -0.214}
{"sequence": "TATGCAGA", "PBM E-score": -0.0251}
{"sequence": "GGGCTCTA", "PBM E-score": -0.0187}
{"sequence": "AGCAGCCC", "PBM E-score": -0.0703}
{"sequence": "ACATAAAG", "PBM E-score": -0.0912}
{"sequence": "CCCATCGA", "PBM E-score": 0.0786}
{"sequence": "AAGTAGGA", "PBM E-score": -0.0631}
{"sequence": "CGATACCG", "PBM E-score": 0.0432}
{"sequence": "ACAGGTTC", "PBM E-score": -0.0776}
{"sequence": "ACTTGCTA", "PBM E-score": -0.0369}
{"sequence": "CGATATGA", "PBM E-score": "-2e-05"}
{"sequence": "GTAAGTGA", "PBM E-score": 0.114}
{"sequence": "CTCCTCCC", "PBM E-score": -0.189}
{"sequence": "AATTGCTA", "PBM E-score": 0.0948}
{"sequence": "CCTTACGC", "PBM E-score": 0.208}
{"sequence": "ACCCCCGT", "PBM E-score": -0.404}
{"sequence": "CATATTAC", "PBM E-score": 0.162}
{"sequence": "AATTACTA", "PBM E-score": 0.134}
{"sequence": "GCTGAAAC", "PBM E-score": -0.139}
{"sequence": "CGCATAAG", "PBM E-score": 0.0106}
{"sequence": "AAGATACG", "PBM E-score": -0.0456}
{"sequence": "CATACTCC", "PBM E-score": 0.0539}
{"sequence": "AGTTGCTG", "PBM E-score": -0.11}
{"sequence": "AGACTCGC", "PBM E-score": -0.179}
{"sequence": "ACGGGGCA", "PBM E-score": -0.125}
{"sequence": "AATGCTGG", "PBM E-score": 0.121}
{"sequence": "AAACCAAG", "PBM E-score": 0.0418}
{"sequence": "ATTCTGGG", "PBM E-score": -0.00905}
{"sequence": "CCCGCGGA", "PBM E-score": 0.204}
{"sequence": "GACAGCTA", "PBM E-score": -0.0623}
{"sequence": "ATGAGTCG", "PBM E-score": 0.0494}
{"sequence": "CCTGCAAC", "PBM E-score": 0.0281}
{"sequence": "ATACAGGC", "PBM E-score": -0.0144}
{"sequence": "ATTAAATA", "PBM E-score": 0.167}
{"sequence": "AGATGTAC", "PBM E-score": 0.0548}
{"sequence": "ATTATCAG", "PBM E-score": 0.00295}
{"sequence": "CGATGAGA", "PBM E-score": 0.0479}
{"sequence": "AGGGTAAC", "PBM E-score": 0.00717}
{"sequence": "CCTATGTA", "PBM E-score": 0.0808}
{"sequence": "GTATAGAC", "PBM E-score": 0.0114}
{"sequence": "AGCAGGTA", "PBM E-score": -0.071}
{"sequence": "CGGCGCTA", "PBM E-score": -0.142}
{"sequence": "ACCAAGGC", "PBM E-score": -0.137}
{"sequence": "CAAACCGG", "PBM E-score": -0.0418}
{"sequence": "CGCAAACG", "PBM E-score": 0.0139}
{"sequence": "GCAGATGA", "PBM E-score": -0.0237}
{"sequence": "AGGATATC", "PBM E-score": 0.119}
{"sequence": "ATAGTCAC", "PBM E-score": 0.115}
{"sequence": "AGTGTCCG", "PBM E-score": 0.0105}
{"sequence": "ATCCGGGA", "PBM E-score": -0.0864}
{"sequence": "GCTCTGAA", "PBM E-score": -0.0599}
{"sequence": "ACGGTAAC", "PBM E-score": 0.028}
{"sequence": "AAGGTCCC", "PBM E-score": 0.135}
{"sequence": "CTTGATCA", "PBM E-score": 0.0994}
{"sequence": "CAGACCGA", "PBM E-score": 0.17}
{"sequence": "GCCACAAA", "PBM E-score": 0.0838}
{"sequence": "ACGAATCT", "PBM E-score": 0.0678}
{"sequence": "CGATTCAA", "PBM E-score": -0.0847}
{"sequence": "CATGTGGA", "PBM E-score": -0.043}
{"sequence": "ATCACACC", "PBM E-score": 0.0235}
{"sequence": "GGGCTCAC", "PBM E-score": -0.224}
{"sequence": "AGACGAAC", "PBM E-score": 0.205}
{"sequence": "ACCAGGTC", "PBM E-score": -0.0863}
{"sequence": "CTCTACAC", "PBM E-score": 0.00612}
{"sequence": "CACCGCAC", "PBM E-score": 0.0959}
{"sequence": "GCATGGCA", "PBM E-score": 0.119}
{"sequence": "ACGGGTAA", "PBM E-score": -0.0679}
{"sequence": "CAGCTTGG", "PBM E-score": 0.0694}
{"sequence": "GCGAAACC", "PBM E-score": -0.0402}
{"sequence": "GCGCCCAA", "PBM E-score": 0.0843}
{"sequence": "TCTATAGA", "PBM E-score": -0.22}
{"sequence": "AAAGGAAC", "PBM E-score": 0.0293}
{"sequence": "AGGCCCAT", "PBM E-score": -0.238}
{"sequence": "GAGGCCCC", "PBM E-score": -0.206}
{"sequence": "CTAACCTC", "PBM E-score": -0.0997}
{"sequence": "CCGAGAGC", "PBM E-score": -0.188}
{"sequence": "ATTAGCAA", "PBM E-score": 0.186}
{"sequence": "ACCGCCGC", "PBM E-score": 0.0991}
{"sequence": "AAAGGTTA", "PBM E-score": 0.0194}
{"sequence": "TATCGTAA", "PBM E-score": 0.0493}
